PMC4387661

By UniProt entry, the sequences of proteins in these tests, tags left out. Where a name states a change or a piece, a line headed by the entry shows the natural chain unless it says otherwise.
UniProt Q60932: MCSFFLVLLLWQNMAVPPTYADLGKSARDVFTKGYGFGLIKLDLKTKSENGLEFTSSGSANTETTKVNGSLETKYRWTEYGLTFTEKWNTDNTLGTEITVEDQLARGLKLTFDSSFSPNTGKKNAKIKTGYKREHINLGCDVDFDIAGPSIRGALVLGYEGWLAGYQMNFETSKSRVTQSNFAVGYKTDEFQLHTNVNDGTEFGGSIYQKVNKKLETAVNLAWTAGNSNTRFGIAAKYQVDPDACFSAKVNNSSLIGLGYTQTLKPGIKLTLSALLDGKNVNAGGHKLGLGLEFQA

What was measured:
[1] = biological target: voltage-dependent anion channel-1 (VDAC1) (mouse (endogenous in B16F10)) (UniProt Q60932); experiment: co-IP; endogenous VDAC1 immunoprecipitated from B16F10 cells that were crosslinked and lysed, prior to and after PTX; cells stably transfected with ATF2 shRNA or ATF2 T52A; immunoblot for ATF2 and HK1
[2] = biological target: T1, activating transcription factor 2 (ATF2) (mouse (endogenous in B16F10)) (UniProt P16951); experiment: co-IP; ATF2 immunoprecipitated from B16F10 cells stably transfected with HK1 shRNA or VDAC1 shRNA, basal and after PTX; immunoblot for HK1 and VDAC1
T1 sequence: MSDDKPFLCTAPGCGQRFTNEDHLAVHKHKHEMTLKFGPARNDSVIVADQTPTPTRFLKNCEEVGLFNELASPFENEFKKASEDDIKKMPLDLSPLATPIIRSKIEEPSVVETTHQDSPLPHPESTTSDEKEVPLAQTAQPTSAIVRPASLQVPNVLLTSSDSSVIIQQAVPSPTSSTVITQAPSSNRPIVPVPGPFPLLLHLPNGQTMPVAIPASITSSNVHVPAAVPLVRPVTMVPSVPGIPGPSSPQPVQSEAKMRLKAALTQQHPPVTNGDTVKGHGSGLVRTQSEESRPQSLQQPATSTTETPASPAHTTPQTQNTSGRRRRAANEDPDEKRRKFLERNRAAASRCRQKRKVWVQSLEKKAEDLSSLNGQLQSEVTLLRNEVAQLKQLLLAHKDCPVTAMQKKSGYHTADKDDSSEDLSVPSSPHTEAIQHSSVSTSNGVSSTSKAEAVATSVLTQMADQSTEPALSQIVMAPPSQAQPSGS

hexokinase-1 (HK1) (from UniProt P17710-3) (enzyme)
binding [1]: binds
binding [2]: binds

voltage-dependent anion channel-1 (VDAC1) (from UniProt Q60932)
binding [2]: binds

B1: activating transcription factor 2 (ATF2) (protein, UniProt P16951 1-487)
chain: MSDDKPFLCTAPGCGQRFTNEDHLAVHKHKHEMTLKFGPARNDSVIVADQTPTPTRFLKNCEEVGLFNELASPFENEFKKASEDDIKKMPLDLSPLATPIIRSKIEEPSVVETTHQDSPLPHPESTTSDEKEVPLAQTAQPTSAIVRPASLQVPNVLLTSSDSSVIIQQAVPSPTSSTVITQAPSSNRPIVPVPGPFPLLLHLPNGQTMPVAIPASITSSNVHVPAAVPLVRPVTMVPSVPGIPGPSSPQPVQSEAKMRLKAALTQQHPPVTNGDTVKGHGSGLVRTQSEESRPQSLQQPATSTTETPASPAHTTPQTQNTSGRRRRAANEDPDEKRRKFLERNRAAASRCRQKRKVWVQSLEKKAEDLSSLNGQLQSEVTLLRNEVAQLKQLLLAHKDCPVTAMQKKSGYHTADKDDSSEDLSVPSSPHTEAIQHSSVSTSNGVSSTSKAEAVATSVLTQMADQSTEPALSQIVMAPPSQAQPSGS
binding [1]: binds

Results are given in words; binding and its absence hold for the method and conditions named. Binding seen in cells or lysates may run through a third protein. Binding can be weak; no strength is given.
